Measurements published in the supplement of paper PMC3334620.
In all, about 33,000 sequences were measured (“E-score (-0.5 to 0.5)”: median about -0.015, highest 2% from about 0.3 on). The list shows a part of the results.

The sequences below were run against T1, Abf1 (UniProt P14164) (assay: PBM E-score (8-mer binding enrichment) (E-score (-0.5 to 0.5)); higher = stronger / more preferred TF binding). Settings: protein concentration: 200 nM; construct: GST-full length.
T1 sequence: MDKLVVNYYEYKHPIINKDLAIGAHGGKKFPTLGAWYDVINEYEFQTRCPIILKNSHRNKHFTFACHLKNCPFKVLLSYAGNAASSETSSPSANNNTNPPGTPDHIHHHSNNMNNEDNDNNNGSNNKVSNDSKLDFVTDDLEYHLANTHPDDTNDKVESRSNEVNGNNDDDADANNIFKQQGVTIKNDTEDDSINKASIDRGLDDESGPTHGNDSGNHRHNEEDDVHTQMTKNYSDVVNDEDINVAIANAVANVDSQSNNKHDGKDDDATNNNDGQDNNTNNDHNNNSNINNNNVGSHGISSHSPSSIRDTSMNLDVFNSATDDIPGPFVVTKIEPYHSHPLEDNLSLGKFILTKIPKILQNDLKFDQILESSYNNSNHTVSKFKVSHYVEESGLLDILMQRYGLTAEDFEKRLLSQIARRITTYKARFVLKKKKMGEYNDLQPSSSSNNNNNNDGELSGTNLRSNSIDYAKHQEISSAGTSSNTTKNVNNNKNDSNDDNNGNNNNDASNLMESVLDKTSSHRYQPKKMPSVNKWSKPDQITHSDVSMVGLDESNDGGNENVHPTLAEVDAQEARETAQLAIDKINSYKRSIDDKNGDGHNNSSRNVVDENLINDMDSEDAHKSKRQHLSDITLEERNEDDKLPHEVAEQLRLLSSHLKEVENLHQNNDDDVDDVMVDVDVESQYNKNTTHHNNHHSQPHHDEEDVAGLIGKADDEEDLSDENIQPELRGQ
Procedure, shortened: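 Yeast transcription factors carrying a GST tag, as full-length proteins or DNA-binding domains, were produced by PURExpress in vitro transcription/translation. About 100-200 nM protein was applied to universal all-10-mer Agilent arrays, double-stranded by primer extension on fresh or once-stripped slides. Bound protein was detected with fluorescent anti-GST, and scans were normalised with masliner. The Universal PBM Analysis Suite gave each ungapped eight-base word, pooled with its reverse complement, an E-score, a modified Wilcoxon-Mann-Whitney statistic.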

Sequence | PBM E-score
GCACTCGC | -0.0729
GCAGCGGA | 0.0412
AAGTGACA | 0.394
AGACAAAA | 0.0375
ATGCTGGA | -0.104
CACCGCAA | 0.116
GCTCCTCC | -0.151
GAGCTTCC | 0.075
AATCTCAA | 0.0257
CCACCTCA | -0.175
ACTTAGCA | -0.0302
GGTGTTAC | -0.187
AACACGAC | 0.148
ACAATCGG | 0.0415
GCATTGAC | 0.0038
CACAGGAA | -0.104
CATCCATA | 0.0978
CCTCCGCA | -0.122
GGGTGTGA | -0.125
GCTAGCAC | -0.0691
TACCCATA | -0.169
CCCGACGC | -0.141
CGCAGACC | -0.227
ATCTTCTG | 0.0215
AGATAGCC | -0.112

Sequence | PBM E-score
CCGATAGC | -0.277
AGGAGTAT | -0.107
GGGATCAC | -0.0214
CGGCCCTC | -0.13
AGTAACGG | 0.0792
AACATGGA | -0.0976
GATGTGCC | -0.00551
GGGATAGA | -0.228
GACCTGGC | -0.0415
CACAGTGG | -0.0175
GGACCGAC | -0.284
CAGAATTC | 0.0421
AACCCACA | -0.0783
CCCGATCA | -0.0828
AAGAAGAC | 0.0359
GTAGTAAC | -0.0476
CCCTATAG | -0.14
AACGCCGC | -0.0204
CTTACAAC | 0.123
CTGAGCAG | 0.0408
GATCCAAC | 0.0815
CGTTTACC | 0.133
CTATTCTA | 0.141
GCCGTCAC | 0.0578
AGAATATG | 0.0694

Sequence | PBM E-score
CGGGTGAC | 0.213
GCGACGCC | -0.109
CAGTAGAA | 0.0212
AACTTCCT | -0.0239
ACTGGGGG | -0.259
AATTGCGG | -0.19
ATAAAGCC | -0.0649
GTTCGAGA | -0.0582
CACAAGGA | 0.0748
CGATAGGC | 0.115
CTTCATCA | 0.242
ATCAGGGC | -0.198
CGTGAAAA | 0.268
CCCGGAGA | -0.249
GCTGACGA | 0.173
GCGTGCGA | -0.0331
GGAGGAAA | -0.252
GTGCTGCA | 0.0593
ACATACAC | 0.106
AGGTATCC | 0.061
GATAACAC | 0.164
CAAGAATG | 0.0252
AATTCCCG | -0.0785
CAGAACTC | -0.0645
AATGATGG | 0.0838

A run of entries from the list above, as a working copy:
Sequence | PBM E-score
CAGTAGAA | 0.0212
AACTTCCT | -0.0239
ACTGGGGG | -0.259
AATTGCGG | -0.19

Continued.

Sequence | PBM E-score
AGGGACTA | -0.0198
ATGGTGAC | 0.177
TATACATA | 0.0494
CGAAGCAC | 0.0193
ACAGCACT | 0.0975
ACCTCGCC | -0.228
AAAACTGG | -0.0893
CAATGTTA | 0.00532
CGGGACAC | -0.213
CACACAAG | -0.115
GCTTTCTA | 0.0881
CGTCGTTA | 0.257
AACTAATT | 0.158
GGCTGTTA | -0.0398
GTAGAACA | -0.00788
GGCGACCA | -0.195
AATAGCCT | -0.0216
ACAGCATG | -0.0675
CCAGTGTA | 0.028
GCTTTAGA | -0.148
AGGATATA | 0.143
TGGAGACA | 0.0975
GTCGGACA | 0.109
CACACATC | -0.122
CCATCTGA | 0.0783

Sequence | PBM E-score
CAAGCAAA | -0.0902
TAAGCTTA | 0.0474
TTCAAAAA | 0.12
ACTGCATG | 0.124
TCAGTTAA | -0.0609
ATCCGAAA | 0.0126
ACCAAGAC | -0.0179
GTACGGTA | 0.197
GGCAGGAA | 0.0517
CATATGAG | 0.0546
GTAGGGAC | -0.0699
ACTGGTGC | -0.0134
GAGGCGGC | -0.0954
TAGCCTAA | -0.0815
CCCTTCCC | -0.279
GCCTCCTA | -0.221
TCAATTCA | 0.107
GGGCGAGA | -0.0834
AGCTATAT | 0.0917
CGCTGAAA | 0.0323
AGTCTCCC | -0.205
AGCGGACG | 0.00093
CTCTTCGA | -0.0334
CCGCGAGG | -0.133
AAAAAACC | -0.154

Sequence | PBM E-score
AGAGCCAA | -0.177
TGGGACCA | -0.219
GCTGGACA | -0.135
AAGTGCCG | -0.0786
CTCCATAA | -0.0534
CTAAGACC | -0.227
AGATGTCC | -0.00069
AAAACCGG | -0.099
AGTGCCAC | -0.177
AAGCTGGG | -0.103
GCGTGCAA | 0.0992
CAGGAAGC | -0.146
ACTAAATG | 0.0946
GAGTAAAA | 0.0646
GCCCACGA | 0.019
CTGGCAAA | 0.00304
ATCTTCGA | 0.0143
AATACCCG | -0.0667
ACTCCAAT | 0.0555
GCGTGAAA | 0.133
CTGAACTC | -0.191
TCCTCCAA | -0.102
ATGACTGC | 0.0387
GAGTGTGC | -0.0353
ACTATGTA | 0.0666

Sequence | PBM E-score
ATGACTTG | 0.233
GTGCGATA | 0.073
CCTAGGGA | -0.0697
CCCCAAGC | -0.0905
CGGCCGAG | 0.0212
TCAATAGA | -0.172
ACAACGCC | 0.13
GAGAATGC | 0.202
TACATAAA | 0.0202
CACAATTC | 0.102
GAGCGCCC | -0.239
AGCGAGTC | -0.0419
AGTGCAAG | 0.0176
AACCGAGC | -0.042
ATGGCCTC | -0.152
AAGGTACT | 0.0524
ACTATCAC | 0.288
GGGGCCGA | -0.154
TAGATCCA | -0.0512
CTGTGGCA | 0.152
CATAGTAA | 0.126
CCTTTGAA | -0.0053

Looked up one by one from the list above:
Sequence | PBM E-score
CCCGATCA | -0.0828
CTCTTCGA | -0.0334
TAGCCTAA | -0.0815
GCTGGACA | -0.135
GCTTTCTA | 0.0881
